This experiment deals with T1, Pikm-1-2xV5 (rice (Oryza sativa)) (UniProt B5UBC1).
T1 sequence: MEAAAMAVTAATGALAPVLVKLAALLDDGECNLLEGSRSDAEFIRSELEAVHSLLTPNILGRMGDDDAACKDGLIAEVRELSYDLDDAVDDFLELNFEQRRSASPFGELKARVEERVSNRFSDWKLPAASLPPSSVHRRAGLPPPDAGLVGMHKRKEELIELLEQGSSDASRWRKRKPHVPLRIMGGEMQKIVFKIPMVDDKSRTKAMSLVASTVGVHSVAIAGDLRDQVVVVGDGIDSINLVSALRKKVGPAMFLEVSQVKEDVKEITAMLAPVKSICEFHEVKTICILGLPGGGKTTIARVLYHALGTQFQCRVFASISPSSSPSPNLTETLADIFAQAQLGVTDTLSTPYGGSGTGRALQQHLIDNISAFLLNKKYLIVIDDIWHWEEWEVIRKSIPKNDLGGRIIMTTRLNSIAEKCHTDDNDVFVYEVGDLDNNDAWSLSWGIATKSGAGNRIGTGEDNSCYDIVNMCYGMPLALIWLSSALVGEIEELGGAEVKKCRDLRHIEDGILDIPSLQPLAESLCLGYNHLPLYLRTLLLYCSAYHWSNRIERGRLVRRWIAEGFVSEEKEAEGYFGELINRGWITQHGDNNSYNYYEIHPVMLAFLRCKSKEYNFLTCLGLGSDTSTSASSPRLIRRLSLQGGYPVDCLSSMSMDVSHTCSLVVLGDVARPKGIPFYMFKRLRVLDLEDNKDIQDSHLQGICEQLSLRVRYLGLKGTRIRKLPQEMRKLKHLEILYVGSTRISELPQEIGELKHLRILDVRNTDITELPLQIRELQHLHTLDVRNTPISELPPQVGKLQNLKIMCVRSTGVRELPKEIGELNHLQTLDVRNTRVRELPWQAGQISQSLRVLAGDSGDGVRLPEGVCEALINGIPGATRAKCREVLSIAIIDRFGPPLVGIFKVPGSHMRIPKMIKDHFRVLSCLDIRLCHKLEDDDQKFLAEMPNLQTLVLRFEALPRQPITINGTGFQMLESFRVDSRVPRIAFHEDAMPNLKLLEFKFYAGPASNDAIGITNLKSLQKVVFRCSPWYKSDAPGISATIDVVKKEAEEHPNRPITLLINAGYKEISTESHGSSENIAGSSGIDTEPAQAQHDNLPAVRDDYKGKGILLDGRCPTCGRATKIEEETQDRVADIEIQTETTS
The experiment in a line: co-IP.

Binding data for one molecule are collected here from doi:10.64898/2025.11.30.691369.

Results are given in words; binding and its absence hold for the method and conditions named. Binding seen in cells or lysates may run through a third protein. Where a sequence is shown, tags or fusion partners need not be part of it.

B1: Rx-HA (receptor, UniProt Q9XGF5 1-937)
chain: MAYAAVTSLMRTIHQSMELTGCDLQPFYEKLKSLRAILEKSCNIMGDHEGLTILEVEIVEVAYTTEDMVDSESRNVFLAQNLEERSRAMWEIFFVLEQALECIDSTVKQWMATSDSMKDLKPQTSSLVSLPEHDVEQPENIMVGRENEFEMMLDQLARGGRELEVVSIVGMGGIGKTTLATKLYSDPCIMSRFDIRAKATVSQEYCVRNVLLGLLSLTSDEPDDQLADRLQKHLKGRRYLVVIDDIWTTEAWDDIKLCFPDCYNGSRILLTTRNVEVAEYASSGKPPHHMRLMNFDESWNLLHKKIFEKEGSYSPEFENIGKQIALKCGGLPLAITVIAGLLSKMGQRLDEWQRIGENVSSVVSTDPEAQCMRVLALSYHHLPSHLKPCFLYFAIFTEDEQISVNELVELWPVEGFLNEEEGKSIEEVATTCINELIDRSLIFIHNFSFRGTIESCGMHDVTRELCLREARNMNFVNVIRGKSDQNSCAQSMQRSFKSRSRIRIHKVEELAWCRNSEAHSIIMLGGFECVTLELSFKLVRVLDLGLNTWPIFPSGVLSLIHLRYLSLRFNPCLQQYQGSKEAVPSSIIDIPLSISSLCYLQTFKLNLPFPSYYPFILPSEILTMPQLRTLCMGWNYLRSHEPTENRLVLKNLQCLNQLNPRYCTGSFFRLFPNLKKLQVFGVPEDFRNSQDLYDFRYLYQLEELTFRLYYPYAACFLKNTAPSGSTQDPLRFQTEILHKEIDFGGTAPPTLLLPPPDAFPQNLKSLTFRGEFSVAWKDLSIVGKLPKLEVLILSWNAFIGKEWEVVEEGFPHLKFLFLDDVYIRYWRASSDHFPYLERVILRDCRNLDSIPRDFADITTLALIDIDYCQQSVVNSAKQIQQDIQDNYGSSIEVHTRHLFIPKSVTTVEDDDDSVTTDEDDDDDDFEKEVASCRNNVE
Consider B1, for which the binding entry is on record as “no binding”.
